Test results reported in US9797883B2, “Re-trafficking of herg reverses long QT syndrome 2 phenotype in human iPS-derived cardiomyocytes” (Singapore Health Services Pte Ltd, priority 2013, dated 2017).

Tests used:
control-EBs = assay: Microelectrode array (MEA) extracellular field potential recordings, control; format: cell-based, human; conditions: 100 nM E-4031, control EBs, EBs with EADs / EBs tested
Description: (§1) To characterize the electrophysiological properties of the hiPS-CMs, a microelectrode array (MEA) recording system (Multichannel Systems, Reutlingen, Germany) was used as described previously. Briefly, contracting areas were micro-dissected and plated on MEA plates, allowed to adjust for 72 hrs before recording. All clusters were monitored for their beating abilities (beats/min) under the microscope during the 72 hr period. Clusters that maintained relatively uniform beating rates were then subjected to drugs. The MEA system allows simultaneous recordings from 60 titanium nitride-coated gold electrodes (30 μm) at high spatial (200 μm) and temporal (15 kHz) resolutions. All stock drugs were diluted in medium (2 mL) to assess the effects on the electrophysiological properties. […]. MEA clip along with the beating clusters was maintained on 37° C. throughout the duration of experiments. Care was also taken that all buffers including the medium utilized during all experimentation were pre-warmed to 37° C. All tested drugs were procured from Sigma-Aldrich, MO, USA. All extracellular recordings were performed for 180 seconds at baseline and at 5 minutes after drug application at 37° C. Data were recorded using MC Rack software (Multichannel System) and the recordings were used to determine the local field potential duration (FPD). […]

LQTS2-EBs = assay: Microelectrode array (MEA) extracellular field potential recordings, LQTS2; format: cell-based, human; conditions: 100 nM E-4031, LQTS2-contracting EBs, EBs with EADs / EBs tested
Description: as §1

occurrence of early after-depolarizations (EADs) (control-EBs): 2/15 | occurrence of early after-depolarizations (EADs) (LQTS2-EBs): 14/15
SMILES: Cc1cccc(CCN2CCC(C(=O)c3ccc(NS(C)(=O)=O)cc3)CC2)n1 [E-4031]
